Assay [1] deals with USP11-GFP (ubiquitin-specific protease 11, WT, GFP-tagged) (human) (UniProt P51784). The experiment in a line: co-IP; 293 cells co-transfected with GFP-tagged USP11 (WT or C318S) and the tagged partner; basal conditions or Torin 1; in one mTOR experiment His-ubiquitin was also expressed; GFP-Trap or Myc-Trap beads, 4 °C, 1 h; IP buffer 20 mM Tris HCl pH 7.5, 150 mM NaCl, 1% NP-40, 0.5% Triton-X; Western ….

Sequences of proteins named here, by UniProt entry; tags and fusion partners are left off.
UniProt Q14457: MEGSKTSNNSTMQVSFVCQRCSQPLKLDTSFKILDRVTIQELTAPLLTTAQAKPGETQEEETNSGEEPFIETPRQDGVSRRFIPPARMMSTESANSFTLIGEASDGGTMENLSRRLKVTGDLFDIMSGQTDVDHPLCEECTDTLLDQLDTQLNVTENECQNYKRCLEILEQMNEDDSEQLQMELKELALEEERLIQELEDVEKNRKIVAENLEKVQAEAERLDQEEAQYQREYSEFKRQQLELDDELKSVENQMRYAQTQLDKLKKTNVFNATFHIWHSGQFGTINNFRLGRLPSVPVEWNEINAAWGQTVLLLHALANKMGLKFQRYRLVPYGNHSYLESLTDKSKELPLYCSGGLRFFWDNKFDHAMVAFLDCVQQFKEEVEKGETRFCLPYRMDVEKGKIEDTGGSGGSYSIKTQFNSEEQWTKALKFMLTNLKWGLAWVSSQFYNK
UniProt Q99570: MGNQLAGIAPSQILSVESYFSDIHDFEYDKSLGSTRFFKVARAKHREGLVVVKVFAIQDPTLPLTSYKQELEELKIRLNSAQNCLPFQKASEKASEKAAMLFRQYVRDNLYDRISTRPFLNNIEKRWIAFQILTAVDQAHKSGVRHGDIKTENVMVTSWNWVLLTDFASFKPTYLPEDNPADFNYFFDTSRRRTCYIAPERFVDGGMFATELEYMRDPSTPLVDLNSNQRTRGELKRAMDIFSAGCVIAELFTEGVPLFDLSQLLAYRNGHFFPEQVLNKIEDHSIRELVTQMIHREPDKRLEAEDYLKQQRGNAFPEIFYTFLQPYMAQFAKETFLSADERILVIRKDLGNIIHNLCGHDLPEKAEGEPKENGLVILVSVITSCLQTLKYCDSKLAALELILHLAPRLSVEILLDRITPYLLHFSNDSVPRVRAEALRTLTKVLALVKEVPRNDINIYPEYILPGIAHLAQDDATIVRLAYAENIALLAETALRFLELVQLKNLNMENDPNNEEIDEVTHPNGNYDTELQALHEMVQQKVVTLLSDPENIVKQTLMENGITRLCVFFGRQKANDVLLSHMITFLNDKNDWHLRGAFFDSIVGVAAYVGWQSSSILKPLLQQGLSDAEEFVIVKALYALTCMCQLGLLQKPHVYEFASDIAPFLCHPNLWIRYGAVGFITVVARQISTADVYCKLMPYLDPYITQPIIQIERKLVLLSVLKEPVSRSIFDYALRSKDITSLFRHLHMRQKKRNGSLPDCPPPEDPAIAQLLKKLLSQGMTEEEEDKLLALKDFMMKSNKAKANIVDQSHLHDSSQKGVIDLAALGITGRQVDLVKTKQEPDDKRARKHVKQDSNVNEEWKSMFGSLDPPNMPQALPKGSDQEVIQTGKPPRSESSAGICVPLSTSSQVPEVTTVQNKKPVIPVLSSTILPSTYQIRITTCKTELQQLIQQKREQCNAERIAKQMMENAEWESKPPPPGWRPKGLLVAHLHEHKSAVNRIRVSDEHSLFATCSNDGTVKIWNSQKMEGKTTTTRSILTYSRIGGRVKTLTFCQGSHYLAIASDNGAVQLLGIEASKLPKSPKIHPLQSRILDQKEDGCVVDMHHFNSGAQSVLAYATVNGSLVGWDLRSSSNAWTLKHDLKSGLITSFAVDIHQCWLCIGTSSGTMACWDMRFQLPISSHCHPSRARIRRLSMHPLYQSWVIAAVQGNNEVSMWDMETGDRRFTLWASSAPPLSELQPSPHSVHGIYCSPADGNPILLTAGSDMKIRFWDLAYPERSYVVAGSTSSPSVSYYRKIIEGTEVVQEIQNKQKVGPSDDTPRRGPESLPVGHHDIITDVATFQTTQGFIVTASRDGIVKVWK
UniProt Q6ZNE5: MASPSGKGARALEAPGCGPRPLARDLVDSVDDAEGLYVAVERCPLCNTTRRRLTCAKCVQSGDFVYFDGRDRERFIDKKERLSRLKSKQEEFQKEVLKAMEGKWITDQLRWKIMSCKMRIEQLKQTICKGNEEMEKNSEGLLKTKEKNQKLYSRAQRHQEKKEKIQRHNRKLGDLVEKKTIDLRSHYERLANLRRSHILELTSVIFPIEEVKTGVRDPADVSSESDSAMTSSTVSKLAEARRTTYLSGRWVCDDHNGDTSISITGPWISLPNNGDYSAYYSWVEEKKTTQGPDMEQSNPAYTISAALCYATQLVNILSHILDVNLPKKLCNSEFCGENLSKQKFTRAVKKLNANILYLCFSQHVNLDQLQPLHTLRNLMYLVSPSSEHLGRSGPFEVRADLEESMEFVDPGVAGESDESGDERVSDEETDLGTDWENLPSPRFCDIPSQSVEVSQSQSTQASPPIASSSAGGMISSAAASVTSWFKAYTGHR

The target of assay [2] is T1, USP11(C318S)-GFP (catalytically inactive USP11, GFP-tagged) (human) (UniProt P51784).
T1 sequence: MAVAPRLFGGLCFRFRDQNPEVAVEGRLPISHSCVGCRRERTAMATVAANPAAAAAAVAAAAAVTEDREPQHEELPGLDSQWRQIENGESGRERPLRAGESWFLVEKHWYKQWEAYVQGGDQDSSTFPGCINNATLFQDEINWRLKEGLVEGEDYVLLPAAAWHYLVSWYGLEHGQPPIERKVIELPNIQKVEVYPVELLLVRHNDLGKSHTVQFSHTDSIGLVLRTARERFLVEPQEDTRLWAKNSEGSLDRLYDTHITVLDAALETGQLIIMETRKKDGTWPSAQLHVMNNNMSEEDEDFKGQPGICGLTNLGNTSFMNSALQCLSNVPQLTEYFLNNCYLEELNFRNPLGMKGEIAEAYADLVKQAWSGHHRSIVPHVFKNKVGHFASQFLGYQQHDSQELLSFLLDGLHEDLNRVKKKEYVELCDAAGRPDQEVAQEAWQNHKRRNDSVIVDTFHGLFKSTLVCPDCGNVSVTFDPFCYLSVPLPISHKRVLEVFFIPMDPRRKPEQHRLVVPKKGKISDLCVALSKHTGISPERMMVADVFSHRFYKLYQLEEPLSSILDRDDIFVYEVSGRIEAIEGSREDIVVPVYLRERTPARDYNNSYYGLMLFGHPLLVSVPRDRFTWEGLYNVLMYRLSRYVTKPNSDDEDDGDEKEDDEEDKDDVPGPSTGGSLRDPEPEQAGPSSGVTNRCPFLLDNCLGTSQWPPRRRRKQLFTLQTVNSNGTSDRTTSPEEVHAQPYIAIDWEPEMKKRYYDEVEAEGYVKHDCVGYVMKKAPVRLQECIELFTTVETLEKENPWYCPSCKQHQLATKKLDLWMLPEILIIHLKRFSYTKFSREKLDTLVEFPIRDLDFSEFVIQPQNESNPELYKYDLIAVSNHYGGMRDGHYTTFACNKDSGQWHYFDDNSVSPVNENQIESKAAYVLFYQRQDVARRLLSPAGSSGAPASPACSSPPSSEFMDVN
Described as above.

Results are given in words; binding and its absence hold for the method and conditions named. Binding seen in cells or lysates may run through a third protein. Some binding calls cover weakened binding; strength is not graded here. For some assays here: Sequences can lack the tags named with a protein.

With Beclin 1 (from UniProt Q14457 1-450), the binding result in assay [1] is listed as “binds”. For the substance HA-VPS15 (from UniProt Q99570 1-1358), the binding entry in assay [2] and in assay [1] was “binds” each time. “HA-NRBF2 (nuclear receptor-binding factor 2) (from UniProt Q96F24 1-287)”: the binding result in assay [2] is “binds”. Regarding “ATG14 (as coprecipitated with USP11, Fig. S2) (from UniProt Q6ZNE5 1-492)”, in assay [1], the binding result is “binds”.

Values taken from PMC8546420.
